Results deposited as PubChem BioAssay AID504791 (Drosophila RNAi Screening Center, 2011).

Purpose: 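Genes of the fly required for silencing by miRNA, siRNA or endo-siRNA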 (primary screen)
Cells: Drosophila S2-derived reporter cells
Reagent: long dsRNA against Drosophila genes, about 150-250 ng dsRNA per well (siRNA assay); about 80-120 ng (miRNA assay)
Time to read-out: about 5 days (siRNA assay); about 4 days (miRNA assay)
Conditions: copper sulfate induction of reporters: 25 µM (siRNA assay); 200 mM stated (miRNA assay), 1-2 days before reading
Measured: 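Per-well ratio of Renilla over firefly light, expressed relative to that plate's average ratio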
Units: stable assay Renilla, run 1 in luminescence; stable assay firefly, run 1 in luminescence
Call rule: 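a well was a first-pass pick when its plate-scaled ratio rose above 1.5 (siRNA assay) or 1.6 (miRNA assay), or dropped below 0.6; a gene counted only if two separate dsRNAs agreed on retest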
The deposit covers about 23,000 reagents; this is an unselected part of those with a known target gene and a result. Over the whole deposit, 199 (0.86%) were called active. 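Plate-scaled ratios behind the calls are not deposited; printed light signals are raw; many rows marked increased or decreased are still called inactive.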 Entries without a mark were called inactive. The numbers tell different reagents against one gene apart. Not stated in the record: the direction of the score.

{"Gene": "CG10232", "reagent": 1, "stable assay Renilla, run 1": 7270, "stable assay firefly, run 1": 3.60e5}
{"Gene": "ValRS-m", "reagent": 1, "stable assay Renilla, run 1": 5967, "stable assay firefly, run 1": 4.32e5}
{"Gene": "Pex2", "reagent": 1, "stable assay Renilla, run 1": 8279, "stable assay firefly, run 1": 5.00e5}
{"Gene": "mal", "reagent": 1, "stable assay Renilla, run 1": 8069, "stable assay firefly, run 1": 4.36e5}
{"Gene": "Jheh2", "reagent": 1, "stable assay Renilla, run 1": 6520, "stable assay firefly, run 1": 3.24e5}
{"Gene": "CG42700", "reagent": 1, "stable assay Renilla, run 1": 5119, "stable assay firefly, run 1": 2.73e5}
{"Gene": "CG42700", "reagent": 2, "stable assay Renilla, run 1": 7134, "stable assay firefly, run 1": 3.50e5}
{"Gene": "CG42700", "reagent": 3, "stable assay Renilla, run 1": 3508, "stable assay firefly, run 1": 2.81e5}
{"Gene": "CR31292", "reagent": 1, "stable assay Renilla, run 1": 6035, "stable assay firefly, run 1": 4.79e5}
{"Gene": "Drsl5", "reagent": 1, "stable assay Renilla, run 1": 6122, "stable assay firefly, run 1": 3.74e5}
{"Gene": "Tps1", "reagent": 1, "stable assay Renilla, run 1": 13435, "stable assay firefly, run 1": 8.05e5}

Continued; the last 2 above are carried over.
{"Gene": "Drsl5", "reagent": 1, "stable assay Renilla, run 1": 6122, "stable assay firefly, run 1": 3.74e5}
{"Gene": "Tps1", "reagent": 1, "stable assay Renilla, run 1": 13435, "stable assay firefly, run 1": 8.05e5}
{"Gene": "PheRS-m", "reagent": 1, "stable assay Renilla, run 1": 8115, "stable assay firefly, run 1": 4.65e5}
{"Gene": "Spn28Db", "reagent": 1, "stable assay Renilla, run 1": 9326, "stable assay firefly, run 1": 7.30e5}
{"Gene": "mRpL46", "reagent": 1, "stable assay Renilla, run 1": 5702, "stable assay firefly, run 1": 3.66e5}
{"Gene": "CG3198", "reagent": 1, "miRNA reporter change": "reporter ratio raised past the hit cutoff", "stable assay Renilla, run 1": 5315, "stable assay firefly, run 1": 2.62e5}
{"Gene": "Vps53", "reagent": 1, "stable assay Renilla, run 1": 14670, "stable assay firefly, run 1": 6.78e5}
{"Gene": "schlank", "reagent": 1, "stable assay Renilla, run 1": 4812, "stable assay firefly, run 1": 3.29e5}
{"Gene": "schlank", "reagent": 2, "stable assay Renilla, run 1": 5658, "stable assay firefly, run 1": 3.39e5}
{"Gene": "ppk27", "reagent": 1, "stable assay Renilla, run 1": 5914, "stable assay firefly, run 1": 3.98e5}
{"Gene": "ppk27", "reagent": 2, "stable assay Renilla, run 1": 8811, "stable assay firefly, run 1": 5.61e5}
{"Gene": "mbc", "reagent": 1, "stable assay Renilla, run 1": 4871, "stable assay firefly, run 1": 3.46e5}
{"Gene": "tj", "reagent": 1, "stable assay Renilla, run 1": 6543, "stable assay firefly, run 1": 3.49e5}
{"Gene": "CG15812", "reagent": 1, "stable assay Renilla, run 1": 7410, "stable assay firefly, run 1": 3.94e5}
{"Gene": "l(3)mbt", "reagent": 1, "stable assay Renilla, run 1": 6136, "stable assay firefly, run 1": 4.23e5}
{"Gene": "CG9555", "reagent": 1, "stable assay Renilla, run 1": 7316, "stable assay firefly, run 1": 4.44e5}
{"Gene": "CG30491", "reagent": 1, "stable assay Renilla, run 1": 8595, "stable assay firefly, run 1": 5.23e5}
{"Gene": "CheB42b", "reagent": 1, "stable assay Renilla, run 1": 4039, "stable assay firefly, run 1": 4.12e5}
{"Gene": "CG32192", "reagent": 1, "stable assay Renilla, run 1": 8570, "stable assay firefly, run 1": 4.03e5}
{"Gene": "Cka", "reagent": 1, "stable assay Renilla, run 1": 8257, "stable assay firefly, run 1": 4.99e5}
{"Gene": "Cka", "reagent": 2, "stable siRNA reporter change": "reporter ratio raised past the hit cutoff (active)", "stable assay Renilla, run 1": 5276, "stable assay firefly, run 1": 3.11e5}
{"Gene": "CG11180", "reagent": 1, "stable assay Renilla, run 1": 9367, "stable assay firefly, run 1": 3.73e5}
{"Gene": "CG9395", "reagent": 1, "stable assay Renilla, run 1": 11211, "stable assay firefly, run 1": 5.73e5}
{"Gene": "c11.1", "reagent": 1, "stable assay Renilla, run 1": 5192, "stable assay firefly, run 1": 3.88e5}
{"Gene": "CG15888", "reagent": 1, "stable assay Renilla, run 1": 7274, "stable assay firefly, run 1": 3.66e5}
{"Gene": "CG5199", "reagent": 1, "stable assay Renilla, run 1": 8019, "stable assay firefly, run 1": 4.35e5}
